PubChem BioAssay AID1259424 | University of Nebraska Medical Center, 2018

Test: 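Rank knockdowns across the genome by resemblance to the KSR1 depletion profile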 (primary screen)
Cell system: human HCT116 colon cancer cells
Reagents: siRNA pool against human genes, 50 nM
Detection: 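Six signature mRNAs by branched-DNA multiplex assay, scaled to two housekeeping genes and non-targeting median, log2; matched to mean KSR1 knockdown profile by Pearson correlation and euclidean distance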
Scale: mean correlation with KSR1 profile: higher = expression change more like KSR1 knockdown; mean distance from KSR1 profile: higher = expression change less like KSR1 knockdown
In all, the deposit lists about 14,000 reagents; this is a random part of them. 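Higher correlation or smaller distance means closer resemblance to KSR1 loss; control wells, including KSR1 knockdowns, recur on many plates.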 Not all columns of the deposit are shown. No sequences are given here. Not given: the time to read-out.

After knock-down of MYD88 [SID363993642] the results were mean correlation with KSR1 profile -0.0431; mean distance from KSR1 profile 1.79.
ZNF202 [SID363994555] gave mean correlation with KSR1 profile -0.501; mean distance from KSR1 profile 2.85.
For B4GALT2 [SID363994844], the values are mean correlation with KSR1 profile -0.106; mean distance from KSR1 profile 3.4.
Depletion of GTPBP2 [SID364001397] resulted in: mean correlation with KSR1 profile -0.28; mean distance from KSR1 profile 1.97.
PRR5L [SID364003105] gave mean correlation with KSR1 profile 0.785; mean distance from KSR1 profile 1.3.
Depletion of TRAT1 [SID364000079] gave: mean correlation with KSR1 profile 0.279; mean distance from KSR1 profile 3.3.
FAM161A [SID364005368] showed mean correlation with KSR1 profile 0.556; mean distance from KSR1 profile 3.3.
After knock-down of ASAH1 [SID363995305] the results were mean correlation with KSR1 profile -0.432; mean distance from KSR1 profile 4.56.
Silencing of NLK [SID363999967] resulted in: mean correlation with KSR1 profile 0.609; mean distance from KSR1 profile 1.88.
For KLF16 [SID364003697] the deposit lists mean correlation with KSR1 profile 0.737; mean distance from KSR1 profile 5.01.
Knock-down of POPDC2 [SID364002361] came out at: mean correlation with KSR1 profile -0.286; mean distance from KSR1 profile 2.1.
Silencing of JAK3 [SID363991550] gave: mean correlation with KSR1 profile 0.386; mean distance from KSR1 profile 2.54.
For NRBP1 [SID363998498], the entry reads mean correlation with KSR1 profile 0.404; mean distance from KSR1 profile 1.34.

4 neighbouring entries from above:
PRR5L [SID364003105]: mean correlation with KSR1 profile = 0.785; mean distance from KSR1 profile = 1.3
TRAT1 [SID364000079]: mean correlation with KSR1 profile = 0.279; mean distance from KSR1 profile = 3.3
FAM161A [SID364005368]: mean correlation with KSR1 profile = 0.556; mean distance from KSR1 profile = 3.3
ASAH1 [SID363995305]: mean correlation with KSR1 profile = -0.432; mean distance from KSR1 profile = 4.56

Additional records:
After knock-down of EPB41L3 [SID363998219] the results were mean correlation with KSR1 profile -0.176; mean distance from KSR1 profile 1.83.
Silencing of TMTC1 [SID364003699] resulted in: mean correlation with KSR1 profile 0.642; mean distance from KSR1 profile 2.91.
For POLR2H [SID363997056], the values are mean correlation with KSR1 profile -0.229; mean distance from KSR1 profile 2.11.
CDH17 [SID363995073] gave mean correlation with KSR1 profile -0.419; mean distance from KSR1 profile 1.36.
With knock-down of TENM1 [SID363998690], the screen gave mean correlation with KSR1 profile 0.242; mean distance from KSR1 profile 1.51.
IRF1 [SID363993399] gave mean correlation with KSR1 profile 0.25; mean distance from KSR1 profile 2.56.
After knock-down of GPR176 [SID363997919], the record shows mean correlation with KSR1 profile 0.553; mean distance from KSR1 profile 2.07.
With knock-down of CYFIP1 [SID363998979] the results were mean correlation with KSR1 profile 0.116; mean distance from KSR1 profile 2.92.
PPFIA1 [SID363994702] showed mean correlation with KSR1 profile -0.141; mean distance from KSR1 profile 4.53.
Knock-down of RAF1 [SID363994036] gave: mean correlation with KSR1 profile 0.252; mean distance from KSR1 profile 2.39.
Depletion of RTBDN [SID364003614] resulted in: mean correlation with KSR1 profile 0.336; mean distance from KSR1 profile 2.86.
Against MUSK [SID363996487] the deposit lists mean correlation with KSR1 profile -0.063; mean distance from KSR1 profile 2.96.
After knock-down of ZNF112 [SID363998487], the record shows mean correlation with KSR1 profile -0.489; mean distance from KSR1 profile 2.71.
Depletion of CTBS [SID363995372] gave: mean correlation with KSR1 profile -0.125; mean distance from KSR1 profile 3.87.
DAPK2 [SID363998756] scored mean correlation with KSR1 profile 0.28; mean distance from KSR1 profile 2.71.
